{"source": "paper PMC12098569", "key": {"[1]": {"biological_target": "T1, PEX3-VN173 expressed from pBiFC-PEX3-VN173 (UniProt P56589)", "T1 sequence": "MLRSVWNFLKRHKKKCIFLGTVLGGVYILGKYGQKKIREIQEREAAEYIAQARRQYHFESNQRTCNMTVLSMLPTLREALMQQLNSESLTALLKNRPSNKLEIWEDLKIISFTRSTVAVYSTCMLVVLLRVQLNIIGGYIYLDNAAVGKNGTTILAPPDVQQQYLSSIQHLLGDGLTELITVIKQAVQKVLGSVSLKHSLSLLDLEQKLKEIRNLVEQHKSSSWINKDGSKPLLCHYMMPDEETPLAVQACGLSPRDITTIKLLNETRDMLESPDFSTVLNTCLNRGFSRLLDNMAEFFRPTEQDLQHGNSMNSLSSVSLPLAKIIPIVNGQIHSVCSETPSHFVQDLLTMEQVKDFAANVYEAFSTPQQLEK", "assay": "split reporter; BiFC with VC155 and VN173 fusions co-transfected into Vero cells; 24 h; fixed with 4% paraformaldehyde, DAPI, fluorescence microscope"}, "[2]": {"biological_target": "T2, TRAP1-VN173 expressed from pBiFC-TRAP1-VN173 (UniProt Q12931)", "T2 sequence": "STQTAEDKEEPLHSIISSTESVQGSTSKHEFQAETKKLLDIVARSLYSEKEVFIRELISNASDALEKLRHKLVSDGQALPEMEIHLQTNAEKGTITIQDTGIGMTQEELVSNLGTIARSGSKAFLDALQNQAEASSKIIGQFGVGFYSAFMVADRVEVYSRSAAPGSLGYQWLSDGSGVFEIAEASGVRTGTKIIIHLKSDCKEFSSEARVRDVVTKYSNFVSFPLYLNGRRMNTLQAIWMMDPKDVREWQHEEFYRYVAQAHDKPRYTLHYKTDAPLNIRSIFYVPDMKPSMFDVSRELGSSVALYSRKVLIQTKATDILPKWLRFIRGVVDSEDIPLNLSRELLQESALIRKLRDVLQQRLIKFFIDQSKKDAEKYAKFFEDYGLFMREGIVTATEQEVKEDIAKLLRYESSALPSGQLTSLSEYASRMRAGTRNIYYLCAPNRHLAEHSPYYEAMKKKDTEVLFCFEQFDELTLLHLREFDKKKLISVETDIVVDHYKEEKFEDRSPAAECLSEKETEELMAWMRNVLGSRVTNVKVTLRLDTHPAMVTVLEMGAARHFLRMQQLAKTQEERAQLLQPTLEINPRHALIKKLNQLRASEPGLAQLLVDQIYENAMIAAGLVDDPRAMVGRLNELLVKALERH", "assay": "split reporter; BiFC with VC155 and VN173 fusions co-transfected into Vero cells; 24 h; fixed with 4% paraformaldehyde, DAPI, fluorescence microscope"}, "[3]": {"biological_target": "T3, HA-PEX3 expressed from pcDNA3.1-HA-PEX3 (UniProt P56589)", "T3 sequence": "T1 sequence", "assay": "co-IP; Vero cells co-transfected with pcDNA3.1-GST-GRA23 and pcDNA3.1-HA-PEX3 or pcDNA3.1-HA-TRAP1, 24 h; lysates with HA magnetic beads at 4°C overnight; Western blot"}, "[4]": {"biological_target": "T4, HA-TRAP1 expressed from pcDNA3.1-HA-TRAP1 (UniProt Q12931)", "T4 sequence": "T2 sequence", "assay": "co-IP; Vero cells co-transfected with pcDNA3.1-GST-GRA23 and pcDNA3.1-HA-PEX3 or pcDNA3.1-HA-TRAP1, 24 h; lysates with HA magnetic beads at 4°C overnight; Western blot"}}, "note": "These are yes or no findings as the source states them, for the method shown. In cells and extracts the contact can be indirect. Binding calls can cover weak binding; strength is not graded here. For some of these results: Sequences can lack the tags named with a protein.", "data": [{"substance": "GRA23-VC155 expressed from pBiFC-GRA23-VC155 (Toxoplasma gondii)", "values": [{"measurement": "binding", "setting": "[1]", "value": "binds"}, {"measurement": "binding", "setting": "[2]", "value": "binds"}]}, {"substance": "GST-GRA23 expressed from pcDNA3.1-GST-GRA23 (Toxoplasma gondii)", "values": [{"measurement": "binding", "setting": "[3]", "value": "binds"}, {"measurement": "binding", "setting": "[4]", "value": "binds"}]}]}
